This note sets out measurements from patent US20240067683A1, “USE OF MCM8-CGAS-STING-IFN-I SIGNAL PATHWAY AS DISEASE TARGET” (Guangzhou Women and Children's Medical Center, priority 2020, published 2024).

Sequences of proteins named here, by UniProt entry; tags and fusion partners are left off. A change or cut given only in a name is not applied to a line headed by its entry.
UniProt P19474: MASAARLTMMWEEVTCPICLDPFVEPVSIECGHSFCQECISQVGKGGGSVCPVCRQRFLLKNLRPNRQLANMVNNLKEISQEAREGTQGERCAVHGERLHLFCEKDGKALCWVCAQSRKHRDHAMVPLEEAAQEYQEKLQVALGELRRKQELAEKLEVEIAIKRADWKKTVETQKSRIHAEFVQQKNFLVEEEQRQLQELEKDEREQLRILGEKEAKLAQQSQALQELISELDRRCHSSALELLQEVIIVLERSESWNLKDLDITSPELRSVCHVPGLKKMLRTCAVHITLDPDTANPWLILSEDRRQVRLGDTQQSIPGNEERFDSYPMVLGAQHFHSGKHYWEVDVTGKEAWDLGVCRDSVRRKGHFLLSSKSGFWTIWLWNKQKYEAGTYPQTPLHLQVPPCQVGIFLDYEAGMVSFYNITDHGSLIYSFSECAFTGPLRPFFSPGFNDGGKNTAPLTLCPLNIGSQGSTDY
UniProt Q9UJA3: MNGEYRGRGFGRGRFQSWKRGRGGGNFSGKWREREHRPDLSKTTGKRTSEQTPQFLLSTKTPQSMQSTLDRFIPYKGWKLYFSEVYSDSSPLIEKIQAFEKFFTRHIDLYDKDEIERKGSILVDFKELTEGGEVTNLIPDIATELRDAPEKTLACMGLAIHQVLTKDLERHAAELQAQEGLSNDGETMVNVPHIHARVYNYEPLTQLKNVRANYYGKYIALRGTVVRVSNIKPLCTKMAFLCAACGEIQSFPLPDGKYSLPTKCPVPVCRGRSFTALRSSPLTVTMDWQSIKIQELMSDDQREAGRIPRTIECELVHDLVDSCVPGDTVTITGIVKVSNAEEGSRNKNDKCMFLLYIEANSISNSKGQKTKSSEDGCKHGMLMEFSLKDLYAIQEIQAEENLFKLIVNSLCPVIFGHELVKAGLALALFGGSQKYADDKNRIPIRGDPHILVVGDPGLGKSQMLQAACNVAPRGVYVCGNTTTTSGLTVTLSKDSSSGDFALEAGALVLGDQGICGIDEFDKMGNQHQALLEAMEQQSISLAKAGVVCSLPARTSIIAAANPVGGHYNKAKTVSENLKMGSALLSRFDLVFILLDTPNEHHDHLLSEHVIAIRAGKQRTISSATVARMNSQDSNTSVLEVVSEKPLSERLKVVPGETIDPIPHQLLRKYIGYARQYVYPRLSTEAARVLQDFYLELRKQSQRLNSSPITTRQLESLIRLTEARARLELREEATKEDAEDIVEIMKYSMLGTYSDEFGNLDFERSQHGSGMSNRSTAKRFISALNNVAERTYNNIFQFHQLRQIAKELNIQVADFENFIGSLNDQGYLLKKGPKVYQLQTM

Test [1] concerns the target Flag-TRIM21 (human) (UniProt P19474). Put plainly: co-immunoprecipitation in HeLa cells (FIG. 12 Panel d).
Test [2] shares this target. In words: co-immunoprecipitation from HeLa cells transfected with Flag-TRIM21 and HA-MCM8.

No constants are given. Whether binding was seen depends on the method and setting. In cells and extracts the contact can be indirect. Some entries that bind do so weakly or less than the wild type.

As for HA-MCM8 (from UniProt Q9UJA3 1-840), the binding entry with Flag-TRIM21 (human) [1] and in the test with Flag-TRIM21 (human) [2] was “binds” throughout.
